According to article PMC3897518:

B1: VP28-V5 (protein, UniProt Q9ICB7 1-204)
chain: MDLSFTLSVVSAILAITAVIAVFIVIFRYHNTVTKTIETHTDNIETNMDENLRIPVTAEVGSGYFKMTDVSFDSDTLGKIKIRNGKSDAQMKEEDADLVITPVEGRALEVTVGQNLTFEGTFKVWNNTSRKINITGMQMVPKINPSKAFVGSSNTSSFTPVSIDEDEVGTFVCGTTFGAPIAATAGGNLFDMYVHVTYSGTETE
B2: WSSV VP28, GAL4-AD prey (protein, UniProt Q9ICB7 1-204)
chain: B1 chain

What was measured:
[1] = target: FLAG-tagged VP11 (VP11-FLAG) (White spot syndrome virus (WSSV-TW strain)); test: co-IP; VP11-FLAG and V5-tagged candidates co-expressed in Sf9 cells; NP-40 lysis buffer (50 mM Tris-HCl pH 8.0, 150 mM NaCl, 1% NP-40); anti-FLAG M2 affinity gel at 4°C overnight; blot with anti-V5 antibody
[2] = target: GAL4 DNA-BD fused WSSV VP11 (aa 168-433) (White spot syndrome virus (WSSV-TW strain)); test: two-hybrid; Matchmaker Gold yeast two-hybrid, mating of Y2HGold with bait GAL4 DNA-BD-VP11 (aa 168-433) and Y187 with GAL4-AD preys; selection on DDO/X/A and then QDO/X/A medium

Binder | binding [1] | binding [2]
B1 | binds | –
B2 | – | binds

These are yes or no findings as the source states them, for the method shown. A result given as binding can be weak or reduced; the word gives no strength. Tags and fused reporters may be left off the sequences shown. For some assays here: In cells and extracts the contact can be indirect.
